Test: LC-MS/MS quantification of Q10 and Q10H2 in mitochondrial enriched samples
Assay type: cell-based

For `COC1=C(OC)C(=O)C(C/C=C(\C)CC/C=C(\C)CC/C=C(\C)CC/C=C(\C)CC/C=C(\C)CC/C=C(\C)CC/C=C(\C)CC/C=C(\C)CC/C=C(\C)CCC=C(C)C)=C(C)C1=O` [Q10, Coenzyme Q10], the “increase in mitochondrial Q10 levels” value (100 μM Q10, 19 hours) was −3 fold, the “increase in mitochondrial Q10 levels” value (100 μM Q10, 48 hour) was ~6 fold and the “Q9 level in mitochondrial enriched sample” value (from here on “Q9 level”) (6 hr Q10 treated, 100 μM) was 0.28 ng/Sample. For the same compound, the “Q10 level in mitochondrial enriched sample” value (6 hr Q10 treated, 100 μM) was 7.21 ng/Sample, the “Q9 level” value (19 hr Q10 treated, 100 μM) was 0.47 ng/Sample and the “Q10 level in mitochondrial enriched sample” value (19 hr Q10 treated, 100 μM) was 16.27 ng/Sample. The “Q9 level” value (48 hr Q10 treated, 100 μM) was 1.99 ng/Sample, the “Q10H2 level in mitochondrial enriched sample” value (48 hr Q10 treated, 100 μM) was 0.28 ng/Sample and the “Q10 level in mitochondrial enriched sample” value (48 hr Q10 treated, 100 μM) was 46.63 ng/Sample. The “general increase in the levels of Q10H2” value (Q10 treated 48 hour sample) was 3 fold and the “form of Q10 in the mitochondria” value (exogenous Q10 in the media) was “maintained in the supplied oxidized form”.

Source: US9205064B2, “Methods for the diagnosis of oncological disorders using epimetabolic shifters, multidimensional intracellular molecules, or environmental influencers” (Berg LLC, priority 2009, dated 2015)
